PubChem BioAssay AID1159594 – NIAID, 2016
In all, the deposit lists 756 reagents; this is an unselected part. Over the whole deposit, 130 (17%) got an active call. 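Active calls cover both falls and rises of reporter activity; each row reflects one siRNA, not a gene-level verdict.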 A number with no mark means an inactive call. Not given: the amount of reagent.

Aim: 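Genes required for a TNF reporter response to diacyl lipopeptide stimulation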
Cells: human THP-1 B5 reporter cells, PMA-differentiated into macrophage-like cells
Reagent: single siRNA against human genes
Time to read-out: 48 to 72 hours after siRNA transfection; ligand exposure 4 hours
Challenge: Pam2CSK4 (TLR2/6 agonist) stimulation for 4 hours before lysis; dose not given
Measurement: 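TNF promoter reporter signal as firefly to renilla luciferase ratio, scaled per plate by median and MAD, given as robust z-score against negative controls, averaged across replicates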
Scale: TNF reporter z-score: higher = stronger TNF promoter reporter activity
Rule for the call: 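The depositor sorts siRNAs into z-score bands with cut-offs of 2.5, 2, 1.5 and 1; grade 50 and above, meaning |z| of 1.5 or more, counts as active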
Meaning of the calls: active = z-score beyond ±1.5 (either direction); inactive = z-score within ±1.5

target gene | PubChem SID | TNF reporter z-score, replicate mean
TAB1 (TGF-beta activated kinase 1 (MAP3K7) binding protein 1) | SID303070594 | -0.379
TAB1 (TGF-beta activated kinase 1 (MAP3K7) binding protein 1) | SID303070595 | -0.692
TAB1 (TGF-beta activated kinase 1 (MAP3K7) binding protein 1) | SID303070596 | -0.609
TAB1 (TGF-beta activated kinase 1 (MAP3K7) binding protein 1) | SID303070597 | -1.85 (active)
TAB1 (TGF-beta activated kinase 1 (MAP3K7) binding protein 1) | SID303070598 | -1.2
TAB1 (TGF-beta activated kinase 1 (MAP3K7) binding protein 1) | SID303070599 | -2.24 (active)
CXCL9 (C-X-C motif chemokine ligand 9) | SID303071110 | -0.0518
CXCL9 (C-X-C motif chemokine ligand 9) | SID303071111 | -0.871
CXCL9 (C-X-C motif chemokine ligand 9) | SID303071112 | -1.32
CXCL9 (C-X-C motif chemokine ligand 9) | SID303071113 | -1.5
CXCL9 (C-X-C motif chemokine ligand 9) | SID303071114 | -0.132
CXCL9 (C-X-C motif chemokine ligand 9) | SID303071115 | 0.115
RIPK1 (receptor interacting serine/threonine kinase 1) | SID303070798 | -0.225
RIPK1 (receptor interacting serine/threonine kinase 1) | SID303070799 | -0.423
RIPK1 (receptor interacting serine/threonine kinase 1) | SID303070800 | -0.555
RIPK1 (receptor interacting serine/threonine kinase 1) | SID303070801 | -0.452
RIPK1 (receptor interacting serine/threonine kinase 1) | SID303070802 | -0.297
RIPK1 (receptor interacting serine/threonine kinase 1) | SID303070803 | -0.0322
IRF3 (interferon regulatory factor 3) | SID303070828 | -0.935
IRF3 (interferon regulatory factor 3) | SID303070829 | -0.0513
IRF3 (interferon regulatory factor 3) | SID303070830 | -1.03
IRF3 (interferon regulatory factor 3) | SID303070831 | -1.71 (active)
IRF3 (interferon regulatory factor 3) | SID303070832 | -0.662
IRF3 (interferon regulatory factor 3) | SID303070833 | -0.51
RAC1 (Rac family small GTPase 1) | SID303070936 | 0.11
RAC1 (Rac family small GTPase 1) | SID303070937 | -0.359
RAC1 (Rac family small GTPase 1) | SID303070938 | 0.154
RAC1 (Rac family small GTPase 1) | SID303070939 | -0.282
RAC1 (Rac family small GTPase 1) | SID303070940 | 0.123
RAC1 (Rac family small GTPase 1) | SID303070941 | -1.74 (active)
STAT1 (signal transducer and activator of transcription 1) | SID303070954 | 0.284
STAT1 (signal transducer and activator of transcription 1) | SID303070955 | -0.604
STAT1 (signal transducer and activator of transcription 1) | SID303070956 | -3 (active)
STAT1 (signal transducer and activator of transcription 1) | SID303070957 | -0.184
STAT1 (signal transducer and activator of transcription 1) | SID303070958 | 0.586
STAT1 (signal transducer and activator of transcription 1) | SID303070959 | 0.437
RIPK3 (receptor interacting serine/threonine kinase 3) | SID303071188 | 0.155
RIPK3 (receptor interacting serine/threonine kinase 3) | SID303071189 | -0.831
RIPK3 (receptor interacting serine/threonine kinase 3) | SID303071190 | 0.624
RIPK3 (receptor interacting serine/threonine kinase 3) | SID303071191 | -0.345
RIPK3 (receptor interacting serine/threonine kinase 3) | SID303071192 | -0.691
RIPK3 (receptor interacting serine/threonine kinase 3) | SID303071193 | -0.0617
TIRAP (TIR domain containing adaptor protein) | SID303070534 | -3.95 (active)
TIRAP (TIR domain containing adaptor protein) | SID303070535 | -2.53 (active)
TIRAP (TIR domain containing adaptor protein) | SID303070536 | -4.35 (active)
TIRAP (TIR domain containing adaptor protein) | SID303070537 | 0.602
TIRAP (TIR domain containing adaptor protein) | SID303070538 | -0.541
TIRAP (TIR domain containing adaptor protein) | SID303070539 | -4.12 (active)
MAPK13 (mitogen-activated protein kinase 13) | SID303070780 | -1.96 (active)
MAPK13 (mitogen-activated protein kinase 13) | SID303070781 | -1.66 (active)
MAPK13 (mitogen-activated protein kinase 13) | SID303070782 | -2.11 (active)
MAPK13 (mitogen-activated protein kinase 13) | SID303070783 | 0.447
MAPK13 (mitogen-activated protein kinase 13) | SID303070784 | -0.959
MAPK13 (mitogen-activated protein kinase 13) | SID303070785 | -1.63 (active)
TLR8 (toll like receptor 8) | SID303070480 | -0.162
TLR8 (toll like receptor 8) | SID303070481 | 0.456
TLR8 (toll like receptor 8) | SID303070482 | -0.136
TLR8 (toll like receptor 8) | SID303070483 | -1.29
TLR8 (toll like receptor 8) | SID303070484 | -0.102
TLR8 (toll like receptor 8) | SID303070485 | -0.295
MAP3K14 (mitogen-activated protein kinase kinase kinase 14) | SID303070864 | 1.29
MAP3K14 (mitogen-activated protein kinase kinase kinase 14) | SID303070865 | -0.0875
MAP3K14 (mitogen-activated protein kinase kinase kinase 14) | SID303070866 | 0.693
MAP3K14 (mitogen-activated protein kinase kinase kinase 14) | SID303070867 | -0.204
MAP3K14 (mitogen-activated protein kinase kinase kinase 14) | SID303070868 | -0.137
MAP3K14 (mitogen-activated protein kinase kinase kinase 14) | SID303070869 | -1.47
ELK4 (ETS transcription factor ELK4) | SID303070990 | -0.535
ELK4 (ETS transcription factor ELK4) | SID303070991 | -1.22
ELK4 (ETS transcription factor ELK4) | SID303070992 | -0.43
ELK4 (ETS transcription factor ELK4) | SID303070993 | -0.618
ELK4 (ETS transcription factor ELK4) | SID303070994 | -0.313
ELK4 (ETS transcription factor ELK4) | SID303070995 | -0.577
PTK2B (protein tyrosine kinase 2 beta) | SID303070972 | 0.00176
PTK2B (protein tyrosine kinase 2 beta) | SID303070973 | -1.23
PTK2B (protein tyrosine kinase 2 beta) | SID303070974 | -0.858
PTK2B (protein tyrosine kinase 2 beta) | SID303070975 | -1.99 (active)
PTK2B (protein tyrosine kinase 2 beta) | SID303070976 | -1.01
PTK2B (protein tyrosine kinase 2 beta) | SID303070977 | -0.514
PIK3R5 (phosphoinositide-3-kinase regulatory subunit 5) | SID303070930 | 0.409
PIK3R5 (phosphoinositide-3-kinase regulatory subunit 5) | SID303070931 | -1.14
PIK3R5 (phosphoinositide-3-kinase regulatory subunit 5) | SID303070932 | 0.0119
PIK3R5 (phosphoinositide-3-kinase regulatory subunit 5) | SID303070933 | 0.171
PIK3R5 (phosphoinositide-3-kinase regulatory subunit 5) | SID303070934 | -0.569
PIK3R5 (phosphoinositide-3-kinase regulatory subunit 5) | SID303070935 | -0.965
TLR3 (toll like receptor 3) | SID303070450 | -0.0442
TLR3 (toll like receptor 3) | SID303070451 | -0.4
TLR3 (toll like receptor 3) | SID303070452 | -0.371
TLR3 (toll like receptor 3) | SID303070453 | -1.14
TLR3 (toll like receptor 3) | SID303070454 | -0.497
TLR3 (toll like receptor 3) | SID303070455 | -0.51
MAPK14 (mitogen-activated protein kinase 14) | SID303070726 | -1.87 (active)
MAPK14 (mitogen-activated protein kinase 14) | SID303070727 | -1.68 (active)
MAPK14 (mitogen-activated protein kinase 14) | SID303070728 | -1.89 (active)
MAPK14 (mitogen-activated protein kinase 14) | SID303070729 | -1.2
MAPK14 (mitogen-activated protein kinase 14) | SID303070730 | -1.12
MAPK14 (mitogen-activated protein kinase 14) | SID303070731 | -2.28 (active)
MAP3K8 (mitogen-activated protein kinase kinase kinase 8) | SID303070678 | -1.94 (active)
MAP3K8 (mitogen-activated protein kinase kinase kinase 8) | SID303070679 | -1.99 (active)
MAP3K8 (mitogen-activated protein kinase kinase kinase 8) | SID303070680 | -2.79 (active)
MAP3K8 (mitogen-activated protein kinase kinase kinase 8) | SID303070681 | -1.4
MAP3K8 (mitogen-activated protein kinase kinase kinase 8) | SID303070682 | -2.25 (active)
MAP3K8 (mitogen-activated protein kinase kinase kinase 8) | SID303070683 | -1.51 (active)
ITGAX (integrin subunit alpha X) | SID303070516 | -0.957
ITGAX (integrin subunit alpha X) | SID303070517 | 0.147
ITGAX (integrin subunit alpha X) | SID303070518 | -0.0702
ITGAX (integrin subunit alpha X) | SID303070519 | -1.64 (active)
ITGAX (integrin subunit alpha X) | SID303070520 | -1.42
ITGAX (integrin subunit alpha X) | SID303070521 | -1.13
ARF6 (ARF GTPase 6) | SID303070522 | 0.349
ARF6 (ARF GTPase 6) | SID303070523 | 0.552
ARF6 (ARF GTPase 6) | SID303070524 | 0.552
ARF6 (ARF GTPase 6) | SID303070525 | -1.85 (active)
ARF6 (ARF GTPase 6) | SID303070526 | -0.271
ARF6 (ARF GTPase 6) | SID303070527 | 0.41
REL (REL proto-oncogene, NF-kB subunit) | SID303070672 | -0.592
REL (REL proto-oncogene, NF-kB subunit) | SID303070673 | -0.344
REL (REL proto-oncogene, NF-kB subunit) | SID303070674 | -0.396
REL (REL proto-oncogene, NF-kB subunit) | SID303070675 | -1.36
REL (REL proto-oncogene, NF-kB subunit) | SID303070676 | -0.398
REL (REL proto-oncogene, NF-kB subunit) | SID303070677 | 0.39
MAP2K3 (mitogen-activated protein kinase kinase 3) | SID303070714 | -0.738
MAP2K3 (mitogen-activated protein kinase kinase 3) | SID303070715 | -1.29
MAP2K3 (mitogen-activated protein kinase kinase 3) | SID303070716 | -0.688
MAP2K3 (mitogen-activated protein kinase kinase 3) | SID303070717 | -2.95 (active)
MAP2K3 (mitogen-activated protein kinase kinase 3) | SID303070718 | -0.331
MAP2K3 (mitogen-activated protein kinase kinase 3) | SID303070719 | -3.67 (active)
EGR2 (early growth response 2) | SID303071008 | -0.0947
EGR2 (early growth response 2) | SID303071009 | -1.09
EGR2 (early growth response 2) | SID303071010 | -2.35 (active)
EGR2 (early growth response 2) | SID303071011 | -1.08
EGR2 (early growth response 2) | SID303071012 | -0.656
EGR2 (early growth response 2) | SID303071013 | -2.2 (active)
PIK3CB | SID303070894 | -1.53 (active)
PIK3CB | SID303070895 | -0.769
PIK3CB | SID303070896 | -0.566
PIK3CB | SID303070897 | -0.0881
PIK3CB | SID303070898 | 0.571
PIK3CB | SID303070899 | -0.462
IRAK3 (interleukin 1 receptor associated kinase 3) | SID303071140 | -0.796
IRAK3 (interleukin 1 receptor associated kinase 3) | SID303071141 | -0.304
IRAK3 (interleukin 1 receptor associated kinase 3) | SID303071142 | 0.262
IRAK3 (interleukin 1 receptor associated kinase 3) | SID303071143 | -0.44
IRAK3 (interleukin 1 receptor associated kinase 3) | SID303071144 | -0.506
IRAK3 (interleukin 1 receptor associated kinase 3) | SID303071145 | -0.447

Taken from above:
Value of TIRAP (TIR domain containing adaptor protein) [SID303070535] in “TNF reporter z-score, replicate mean”: -2.53 (active)
Value of MAPK14 (mitogen-activated protein kinase 14) [SID303070728] under “TNF reporter z-score, replicate mean”: -1.89 (active)
Under “TNF reporter z-score, replicate mean”, RIPK1 (receptor interacting serine/threonine kinase 1) [SID303070799] shows -0.423
For “TNF reporter z-score, replicate mean”, TIRAP (TIR domain containing adaptor protein) [SID303070536] reads -4.35 (active)
MAP2K3 (mitogen-activated protein kinase kinase 3) [SID303070717], TNF reporter z-score, replicate mean → -2.95 (active)
Entry for PTK2B (protein tyrosine kinase 2 beta) [SID303070974] under “TNF reporter z-score, replicate mean”: -0.858
